PMC9452783
Results are given in words; binding and its absence hold for the method and conditions named. Binding seen in cells or lysates may run through a third protein. Some entries that bind do so weakly or less than the wild type. Where a sequence is shown, tags or fusion partners need not be part of it.

The chains behind the UniProt entries cited, without tags or fusion partners.
UniProt P54132: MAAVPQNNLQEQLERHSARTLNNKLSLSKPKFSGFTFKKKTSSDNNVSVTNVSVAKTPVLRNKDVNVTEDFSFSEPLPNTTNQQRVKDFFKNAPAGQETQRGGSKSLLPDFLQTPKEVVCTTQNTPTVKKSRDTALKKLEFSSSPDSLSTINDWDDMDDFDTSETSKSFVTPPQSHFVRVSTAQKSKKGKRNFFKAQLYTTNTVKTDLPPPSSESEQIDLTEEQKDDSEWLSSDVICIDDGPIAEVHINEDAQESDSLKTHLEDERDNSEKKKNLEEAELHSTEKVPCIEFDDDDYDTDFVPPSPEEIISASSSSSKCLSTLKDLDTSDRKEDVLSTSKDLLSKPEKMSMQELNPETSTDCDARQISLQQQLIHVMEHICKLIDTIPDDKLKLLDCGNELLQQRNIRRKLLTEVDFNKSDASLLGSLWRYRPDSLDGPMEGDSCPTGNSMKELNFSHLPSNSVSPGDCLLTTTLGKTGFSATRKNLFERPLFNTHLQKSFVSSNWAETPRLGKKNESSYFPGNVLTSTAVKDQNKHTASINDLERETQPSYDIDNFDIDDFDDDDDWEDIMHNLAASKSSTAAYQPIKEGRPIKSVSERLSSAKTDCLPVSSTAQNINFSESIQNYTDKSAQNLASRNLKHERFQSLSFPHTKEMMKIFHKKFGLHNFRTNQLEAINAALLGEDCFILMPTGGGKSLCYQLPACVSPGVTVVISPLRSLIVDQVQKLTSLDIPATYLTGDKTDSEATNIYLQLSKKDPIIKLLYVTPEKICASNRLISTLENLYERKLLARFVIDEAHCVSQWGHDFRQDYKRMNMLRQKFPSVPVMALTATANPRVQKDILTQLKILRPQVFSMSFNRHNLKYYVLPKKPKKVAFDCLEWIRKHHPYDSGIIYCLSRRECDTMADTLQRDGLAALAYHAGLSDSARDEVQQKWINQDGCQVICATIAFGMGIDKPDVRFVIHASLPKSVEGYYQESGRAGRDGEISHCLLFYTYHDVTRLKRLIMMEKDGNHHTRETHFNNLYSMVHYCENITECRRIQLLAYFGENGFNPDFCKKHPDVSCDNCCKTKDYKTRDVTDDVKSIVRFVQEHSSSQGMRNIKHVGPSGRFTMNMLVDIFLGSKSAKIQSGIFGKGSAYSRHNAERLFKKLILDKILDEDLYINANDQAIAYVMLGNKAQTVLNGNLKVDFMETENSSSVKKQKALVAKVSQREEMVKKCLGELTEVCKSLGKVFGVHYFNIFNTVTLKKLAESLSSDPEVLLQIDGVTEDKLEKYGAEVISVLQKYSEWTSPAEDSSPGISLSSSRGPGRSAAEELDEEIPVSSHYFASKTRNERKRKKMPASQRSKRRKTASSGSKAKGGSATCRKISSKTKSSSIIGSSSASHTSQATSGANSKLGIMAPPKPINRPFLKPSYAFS
UniProt P53350: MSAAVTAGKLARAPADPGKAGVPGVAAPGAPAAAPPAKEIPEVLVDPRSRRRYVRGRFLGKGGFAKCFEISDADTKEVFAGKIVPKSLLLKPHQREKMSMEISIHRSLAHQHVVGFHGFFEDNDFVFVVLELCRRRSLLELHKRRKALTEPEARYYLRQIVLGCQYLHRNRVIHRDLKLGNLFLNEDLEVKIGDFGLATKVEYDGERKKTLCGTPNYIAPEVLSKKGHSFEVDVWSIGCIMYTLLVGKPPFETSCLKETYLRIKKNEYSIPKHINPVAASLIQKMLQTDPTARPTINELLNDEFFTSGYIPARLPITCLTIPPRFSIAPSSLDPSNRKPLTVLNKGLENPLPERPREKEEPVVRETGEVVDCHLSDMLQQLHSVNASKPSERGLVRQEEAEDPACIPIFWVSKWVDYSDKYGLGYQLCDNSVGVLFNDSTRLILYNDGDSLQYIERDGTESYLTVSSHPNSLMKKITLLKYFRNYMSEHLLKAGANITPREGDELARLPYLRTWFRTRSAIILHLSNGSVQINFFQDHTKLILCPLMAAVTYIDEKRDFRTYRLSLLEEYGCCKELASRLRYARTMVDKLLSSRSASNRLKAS

Key:
Assay in all cases: co-IP; 293T cells cotransfected with Flag- and His-tagged constructs; IP with anti-Flag ("indicated antibodies" for Figures 5A, 7C, 7D), western blot with anti-His and anti-Flag; some panels with or without 2 μM CPT for 1 h, or with MG132 (20 μM, 3 h) and NETN lysis
[1] = target: T1, Flag-CtIP K426A (human) (UniProt Q99708)
T1 sequence: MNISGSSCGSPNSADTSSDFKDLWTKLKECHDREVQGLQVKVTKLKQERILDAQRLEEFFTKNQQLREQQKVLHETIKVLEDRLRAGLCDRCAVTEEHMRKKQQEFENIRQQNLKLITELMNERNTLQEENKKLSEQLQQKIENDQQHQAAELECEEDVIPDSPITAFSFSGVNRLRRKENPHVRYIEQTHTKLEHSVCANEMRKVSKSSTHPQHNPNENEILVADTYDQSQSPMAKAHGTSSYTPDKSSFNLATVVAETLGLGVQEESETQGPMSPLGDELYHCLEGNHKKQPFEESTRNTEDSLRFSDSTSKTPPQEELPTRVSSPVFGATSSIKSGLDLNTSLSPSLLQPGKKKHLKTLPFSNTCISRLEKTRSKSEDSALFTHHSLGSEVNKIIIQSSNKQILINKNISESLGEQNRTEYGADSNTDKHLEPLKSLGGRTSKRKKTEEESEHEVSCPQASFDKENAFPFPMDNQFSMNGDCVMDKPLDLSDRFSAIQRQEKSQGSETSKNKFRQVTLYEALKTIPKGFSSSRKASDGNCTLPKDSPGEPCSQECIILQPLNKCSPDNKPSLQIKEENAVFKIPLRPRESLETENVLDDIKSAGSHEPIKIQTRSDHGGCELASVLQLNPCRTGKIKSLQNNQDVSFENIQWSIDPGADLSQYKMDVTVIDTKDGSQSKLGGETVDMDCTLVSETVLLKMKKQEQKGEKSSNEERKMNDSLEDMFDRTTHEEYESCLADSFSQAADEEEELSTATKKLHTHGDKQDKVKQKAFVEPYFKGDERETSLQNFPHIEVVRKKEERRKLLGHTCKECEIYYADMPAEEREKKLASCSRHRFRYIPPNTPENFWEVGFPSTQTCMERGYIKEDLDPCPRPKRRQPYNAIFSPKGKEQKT

[2] = target: T2, Flag-PPIL2 1-240 (UniProt Q13356)
T2 sequence: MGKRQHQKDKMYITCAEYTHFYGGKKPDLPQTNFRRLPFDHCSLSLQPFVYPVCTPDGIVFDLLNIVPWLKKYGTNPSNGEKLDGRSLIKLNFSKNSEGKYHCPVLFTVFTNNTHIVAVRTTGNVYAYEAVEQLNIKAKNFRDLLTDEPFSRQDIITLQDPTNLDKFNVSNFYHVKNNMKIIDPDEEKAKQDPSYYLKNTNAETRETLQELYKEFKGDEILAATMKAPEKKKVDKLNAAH

[3] = target: T3, Flag-PPIL2 241-520 (UniProt Q13356)
T3 sequence: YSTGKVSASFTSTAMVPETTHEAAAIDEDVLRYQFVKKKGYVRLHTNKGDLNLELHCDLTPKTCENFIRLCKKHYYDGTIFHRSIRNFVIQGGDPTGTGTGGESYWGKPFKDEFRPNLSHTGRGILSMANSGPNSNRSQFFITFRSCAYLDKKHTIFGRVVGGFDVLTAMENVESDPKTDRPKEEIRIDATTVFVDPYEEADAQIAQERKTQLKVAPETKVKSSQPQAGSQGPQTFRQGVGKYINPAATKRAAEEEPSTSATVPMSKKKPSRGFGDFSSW

binding [1] | binding [2] | binding [3] | Substance
binds |  |  | His-BLM (from UniProt P54132 1-1417) (enzyme)
 | binds | binds | His-PLK1 (expressed in 293T cells) (from UniProt P53350 1-603) (enzyme)
